Drawing on PMC7041944, this text covers binding for one substance.

Amino acid sequences for entries named in this document (tags omitted).
UniProt P33534: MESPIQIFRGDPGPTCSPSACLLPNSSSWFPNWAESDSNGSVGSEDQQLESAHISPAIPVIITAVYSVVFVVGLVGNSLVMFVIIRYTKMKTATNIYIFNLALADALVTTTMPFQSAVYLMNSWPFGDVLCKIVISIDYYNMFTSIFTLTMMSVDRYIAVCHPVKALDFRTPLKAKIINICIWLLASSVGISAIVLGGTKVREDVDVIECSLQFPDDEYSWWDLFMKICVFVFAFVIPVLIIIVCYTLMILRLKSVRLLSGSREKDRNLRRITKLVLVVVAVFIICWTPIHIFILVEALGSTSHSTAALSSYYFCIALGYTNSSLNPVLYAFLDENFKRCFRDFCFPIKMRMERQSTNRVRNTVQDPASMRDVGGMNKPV
UniProt Q99MK8: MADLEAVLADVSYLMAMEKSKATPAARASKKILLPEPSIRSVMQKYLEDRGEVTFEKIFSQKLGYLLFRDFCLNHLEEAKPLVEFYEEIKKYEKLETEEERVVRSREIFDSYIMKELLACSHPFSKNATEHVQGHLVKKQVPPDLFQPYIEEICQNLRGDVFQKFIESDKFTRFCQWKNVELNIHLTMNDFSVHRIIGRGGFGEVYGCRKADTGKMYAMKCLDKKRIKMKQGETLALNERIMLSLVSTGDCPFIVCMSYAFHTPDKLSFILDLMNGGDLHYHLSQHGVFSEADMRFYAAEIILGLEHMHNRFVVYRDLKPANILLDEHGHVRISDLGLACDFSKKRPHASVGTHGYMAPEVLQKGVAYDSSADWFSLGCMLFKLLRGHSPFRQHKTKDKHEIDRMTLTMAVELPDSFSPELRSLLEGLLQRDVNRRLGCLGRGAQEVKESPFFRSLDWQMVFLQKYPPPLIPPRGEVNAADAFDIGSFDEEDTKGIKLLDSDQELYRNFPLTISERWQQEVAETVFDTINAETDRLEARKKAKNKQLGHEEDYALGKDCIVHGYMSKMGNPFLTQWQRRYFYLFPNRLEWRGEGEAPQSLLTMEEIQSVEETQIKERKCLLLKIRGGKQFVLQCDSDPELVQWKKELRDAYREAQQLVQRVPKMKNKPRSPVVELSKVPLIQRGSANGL

The target in assay [1] is Super ecliptic pHluorin (SEP)-KOR, murine (murine) (UniProt P33534). Kind of assay: TIR-FM recruitment to antibody-clustered receptors in living cells; as a3, frames collected immediately before agonist.
For assay [2] the target is unchanged. Put plainly: condition: only with etorphine (1 uM) as the agonist; TIR-FM recruitment to antibody-clustered receptors in living cells; as a3, but with etorphine (1 uM) instead of DynA.
For assay [3] the target is unchanged. Put plainly: TIR-FM recruitment to antibody-clustered receptors in living cells; HEK293 cell expressing GRK2-mCherry and SEP-KOR; KOR cross-linked with polyclonal rabbit anti-GFP antibody (1:100, 15 min, 37 C); 1 uM DynA, 1-2 min.

These are yes or no findings as the source states them, for the method shown. Some binding calls cover weakened binding; strength is not graded here.

On to “GRK2-mCherry, murine (from UniProt Q99MK8 1-689) (enzyme)”, for which the values for the binding entry in assay [1], in assay [2] and in assay [3] were “no binding (condition: without agonist)”, “no binding” and “binds”, respectively.
